Measured values as given in the supplement of paper PMC3682954.
Where a name gives a salt, the structure may show the parent alone. ± gives the standard deviation of the averaged measurements. The list shows a part of the results. Most values come without repeats; read them as rough.

System: RAW 264.7
Assay: HMGB1-induced TNF-alpha production relative to HMGB1-stimulated control; higher = more TNF-alpha secretion (less inhibition)
Conditions: stimulus: HMGB1 5 ug/ml, 18 h
[1] = compound concentration: 1 ug/ml

SMILES | HMGB1-induced TNF-alpha production (compound concentration: 3 uM) [%] | HMGB1-induced TNF-alpha production [1] [%]
CS(=O)(=O)c1ccc(C2=C(c3ccccc3)C(=O)OC2)cc1 | 101 ± 4 | 
CS(=O)(=O)c1ccc(C2=C(c3ccccc3)C(=O)OC2)cc1 [Rofecoxib] | 82 ± 7 | 
Cn1c(=O)c2[nH]cnc2n(C)c1=O [Aminophylline] | 123 ± 8.4 | 
Cn1c(=O)c2[nH]cnc2n(C)c1=O [Aminophylline ethylenediamine] | 85 | 
CN(C)CCC=C1c2ccccc2CCc2ccccc21 [Amitriptyline hydrochloride] | 74.9 | 
CN(C)CCC=C1c2ccccc2CCc2ccccc21 [Amitryptiline hydrochloride] | 73.9 | 
CN(C)CCC=C1c2ccccc2CCc2ccccc21 | 79.8 | 
Cc1ccnc2c1NC(=O)c1cccnc1N2C1CC1 [Viramune] | 100 | 
Cc1[nH]c(=O)c(C#N)cc1-c1ccncc1 | 121 | 
Cc1[nH]c(=O)c(C#N)cc1-c1ccncc1 [Milrinone] | 115 ± 24 | 
O=c1cccc2n1CC1CC2CN(CC(O)C=Nc2c3ccccc3nc3ccccc23)C1 (configuration not stated) |  | 51.1
CCOc1ccc2oc(=O)c(-c3ccc(O)cc3)c(C)c2c1 [6-Ethoxy-3(4'-hydroxyphenyl)-4-methylcoumarin] |  | 79.4
O=C(Nc1ccccc1)c1ccccc1O | 72.8 | 
C=C1C(=O)[C@]23[C@H](CC[C@@H]1[C@@H]2O)[C@]12CO[C@@]3(O)[C@H](O)[C@H]1C(C)(C)CC[C@@H]2O | 20.6 | 
C=C1C[C@@]23CC[C@H]4[C@@](C)(CCC[C@@]4(C)C(=O)O[C@@H]4O[C@H](CO)[C@@H](O)[C@H](O)[C@H]4O)[C@@H]2CC[C@]1(O[C@@H]1O[C@H](CO)[C@@H](O)[C@H](O)[C@H]1O[C@@H]1O[C@H](CO)[C@@H](O)[C@H](O)[C@H]1O)C3 [Stevioside] | 98.1 | 
OC[C@H]1O[C@@H](Oc2ccc3ccccc3c2)[C@H](O)[C@@H](O)[C@H]1O [2-Naphthyl-beta-D-galactopyranoside] |  | 82
COCC1=C(C(=O)OC(C)OC(=O)OC(C)C)N2C(=O)[C@@H](NC(=O)/C(=N\OC)c3csc(N)n3)[C@H]2SC1 (some centres not stated) | 100 ± 9.3 | 
COc1cc(-c2oc3ccccc3c(=O)c2O)cc(OC)c1OC [3-Hydroxy-3',4',5'-trimethoxyflavone] |  | 91.4
CN(C)c1cc2c(Nc3ccc4c(cnn4Cc4ccccc4)c3)ncnc2cn1 | 97.7 | 
CCN(CC)CCOC(=O)C(c1ccccc1)C1CCCCC1 (configuration not stated) [Drofenine hydrochloride] | 67.5 | 
CCN(CC)CCOC(=O)C(c1ccccc1)C1CCCCC1 (configuration not stated) | 88.3 | 
NC(=O)C(=O)O [Sodium Oxamate] | 103 | 

Given as a markdown table: entries from further up

| SMILES | HMGB1-induced TNF-alpha production (compound concentration: 3 uM) [%] | HMGB1-induced TNF-alpha production [1] [%] |
| --- | --- | --- |
| CS(=O)(=O)c1ccc(C2=C(c3ccccc3)C(=O)OC2)cc1 [Rofecoxib] | 82 ± 7 |  |
| NC(=O)C(=O)O [Sodium Oxamate] | 103 |  |
